PubChem BioAssay AID2685 (National Center for Advancing Translational Sciences (NCATS), 2010)
This is one part of the list. The main result of the screen is listed elsewhere. These columns were measured beside it and carry no call. The list favours compounds with an active or inconclusive main result. Words in brackets tell the shape of the fitted curve; partial curves, single points and poor fits give uncertain potencies.

Assay: qHTS Assay for Lipid Storage Modulators in Drosophila S3 Cells;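 for cell number change: cells counted by Cell Tracker Red CMTPX staining in the red channel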
Conditions: BODIPY lipid droplet fluorescence, 18-24 h; for cell number change: measured here: cell count max response, cells fed with added oleic acid
Procedure, shortened: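 Drosophila S3 cells loaded with oleic acid (400 uM, as added) and compounds at several concentrations; lipid droplets imaged by 488-nm laser-scanning cytometry, 500–530 nm intensity and object ratio to cell channel. Percent activity normalized to 20 uM Triacsin C.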

[1] = measured here: cell number channel AC50, cells fed with added oleic acid
[2] = measured here: lipid fluorescence (Fed channel) AC50, cells fed with added oleic acid

Structure (SMILES)	cell number change [%]	AC50 [1]	AC50 [2]
Cc1ccc(C(=O)NC(=S)N2CCN(C(=O)OC(C)(C)C)CC2)cc1Br	-16.6	0.13 µM [falling, full curve, poor fit]	0.291 µM [falling, single point]
O=C(COC(=O)C1CC2C=CC1C2)NCc1ccco1 (centres undefined)	-12.6	–	–
Cc1cccc(C(=O)OCC(=O)NCc2cccs2)c1	55.1	29.1 µM [rising, single point]	–
O=C(OCc1ccccc1)C1=NNC2C(=O)N(Cc3ccccc3)C(=O)C12 (centres undefined)	58.3	18.4 µM [rising, single point]	–
COC(=O)CN(C)C(=O)c1ccccc1OC1CCN(S(C)(=O)=O)CC1	-1.37	–	14.6 µM [rising, partial curve]
CN(CC(=O)Nc1cccc(F)c1)C(=O)CNC(=O)Cc1cccc2ccccc12	–	0.00461 µM [rising, full curve, poor fit]	29.1 µM [falling, single point]
CN(C)S(=O)(=O)c1ccc(Cl)c(NC(=O)CSc2nc3c(cc2C#N)C(=O)CCC3)c1	-1.99	–	–
COC(=O)c1ccc(CNC(=O)c2ccc(S(=O)(=O)N3CCCC(C)C3)cc2)cc1 (centres undefined)	-1.48	–	3.26 µM [falling, single point]
CO/N=C/c1c(-c2ccc(Cl)cc2)nc2cc(C)ccn12	–	–	0.731 µM [rising, full curve, poor fit]
Cc1cc(-c2ccccc2)nc(N(C)NC(=O)C(C)(C)C)c1S(C)(=O)=O	45.9	29.1 µM [rising, single point]	–
Cc1cccc(C(=O)Nc2ccc(O)cc2C(=O)O)c1	31.1	31.6 µM [rising, single point]	31.6 µM [rising, single point]
O=C(CSc1nnc(-c2ccc(S(=O)(=O)N3CCCC3)cc2)o1)NCc1ccccc1	-2.24	–	–
CC1CCN(S(=O)(=O)c2ccc(NC(=O)c3cccs3)cc2)CC1	-19.4	–	–
Cn1c(CCN2CCCCC2)nc2cc(NC(=O)C3CCCCC3)ccc21	-6.53	–	1.84 µM [falling, full curve]
COC(=O)c1ccccc1NC(=O)c1ccc(COc2cccc3ccccc23)o1	–	–	23.1 µM [rising, single point]
Cc1ccc(OCC(=O)NCCCNC(=O)c2cccnc2)cc1C	1.67	–	–
C=COCCNC(=S)N1CCOCCOCCN(C(=S)NCCOC=C)CCOCCOCC1	-23.3	–	0.103 µM [falling, full curve, poor fit]
COc1cc(/C=C(\C#N)c2nc3ccccc3[nH]2)ccc1Oc1ccc([N+](=O)[O-])cn1	11	0.146 µM [rising, full curve, poor fit]	–
CS(=O)(=O)c1ccc(S(=O)CC(=O)Oc2ccc(Cl)cc2)c([N+](=O)[O-])c1 (centres undefined)	-72.2	6.51 µM [falling, partial curve]	6.51 µM [falling, full curve]
Cc1ccc2cn[nH]c2c1N	–	0.731 µM [rising, single point]	–

Structures from the list above that have a furan ring, fused or not (two):
Structure (SMILES)	cell number change [%]	AC50 [1]	AC50 [2]
O=C(COC(=O)C1CC2C=CC1C2)NCc1ccco1 (centres undefined)	-12.6	–	–
COC(=O)c1ccccc1NC(=O)c1ccc(COc2cccc3ccccc23)o1	–	–	23.1 µM [rising, single point]

Pulled by structure from the entries so far (two):
Structure (SMILES)	cell number change [%]	AC50 [1]	AC50 [2]
C=COCCNC(=S)N1CCOCCOCCN(C(=S)NCCOC=C)CCOCCOCC1	-23.3	–	0.103 µM [falling, full curve, poor fit]
CN(C)S(=O)(=O)c1ccc(Cl)c(NC(=O)CSc2nc3c(cc2C#N)C(=O)CCC3)c1	-1.99	–	–

(next part)

Structure (SMILES)	cell number change [%]	AC50 [1]	AC50 [2]
CN(CC(O)CN)CC(O)CN1CCCCC1 (centres undefined)	–	5.17 µM [falling, single point]	6.51 µM [falling, partial curve, poor fit]
CCN(CC)c1ccc(/C=N/NC(=O)c2cc(C)nc3ccccc23)cc1	-7.15	–	0.517 µM [falling, single point]
Clc1cccc(CSc2ccc(-c3cccnc3)nn2)c1	1.71	–	3.66 µM [rising, single point]
COc1ccc(S(=O)(=O)N2CCC(C(=O)N(C)Cc3ccc(C)o3)CC2)cc1OC	6.01	–	0.013 µM [rising, full curve, poor fit]
Cc1ccccc1N/C(=C(/C(Cl)=C(Cl)Cl)[N+](=O)[O-])n1nnc2ccccc21	8.8	–	–
c1ccc2c(c1)NC1(CCCCC1)n1c-2nc2ccccc21	-19.2	–	0.00461 µM [rising, full curve, poor fit]
O=C1COc2ccc(C(=O)COC(=O)c3ncc(Cl)c(Cl)c3Cl)cc2N1	-4.53	0.82 µM [falling, full curve, poor fit]	–
CC[C@@]12C(=O)N(c3cccc(Cl)c3)C(=O)N1[C@H](c1ccc(Br)cc1)[C@@H]1C(=O)N(C(C)(C)C)C(=O)[C@@H]12	-30.4	29.1 µM [falling, single point]	–
COc1ccc(S(=O)(=O)N2CCN(C(=O)CN3C(=O)NC(C)(C)C3=O)CC2)cc1	0.825	–	0.731 µM [rising, single point]
C#Cc1ccc([C@@H]2C=C(C(=O)NC3CC3)O[C@H](OCC)[C@H]2CCCO)cc1	20.4	–	0.461 µM [rising, full curve, poor fit]
Nc1c(C(=O)O)sc2nc(-c3ccc(F)cc3)cc(-c3ccccc3)c12	–	0.082 µM [rising, full curve]	0.731 µM [rising, partial curve, poor fit]
Cc1ccc(S(=O)(=O)Nc2c(C)nc3nc(C)[nH]n3c2=O)cc1	67.5	29.1 µM [rising, single point]	29.1 µM [rising, single point]
O=C(CC1CCS(=O)(=O)C1)NC1CCCCC1 (centres undefined)	-17	–	0.231 µM [falling, full curve, poor fit]
CCCCn1c(=NC(=O)c2ccc3c(c2)OCO3)c(C#N)cc2c(=O)n3cccc(C)c3nc21	24.5	0.0206 µM [rising, full curve, poor fit]	0.058 µM [rising, full curve, poor fit]
CN(C(=O)CC1C(=O)NCCN1Cc1c(F)cccc1Cl)C1CCOCC1 (centres undefined)	–	–	6.51 µM [falling, single point]
Clc1ccc(-c2nnnn2-c2ccc(Cl)cc2)cc1	20.3	–	–
Cc1cccc(Cl)c1NC(=O)N1CCN(c2ccnc3cc(Cl)ccc23)CC1	-36.7	–	–
CCc1ccc2oc(=O)cc(CN3CCN(c4ccc(F)cc4)CC3)c2c1	-98.3	18.4 µM [falling, partial curve, poor fit]	1.84 µM [falling, full curve, poor fit]
CCN(CC)S(=O)(=O)c1ccc2[nH]cc(C(=O)NCCc3ccc(OC)c(OC)c3)c(=O)c2c1	74.5	2.59 µM [rising, full curve]	2.59 µM [rising, full curve]
COc1cc(OC)c(C2C3=C(CCCC3=O)Nc3nc4ccccc4n32)cc1OC (centres undefined)	-18.3	–	–

Structure (SMILES)	cell number change [%]	AC50 [1]	AC50 [2]
COc1ccc(CCNC(=O)CCCN2C(=O)c3ccccc3C2=O)cc1	18.8	–	0.651 µM [falling, single point]
Cc1cccc(OCC(=O)NC2CCCCCC2)c1C	-7.92	–	0.0164 µM [falling, full curve, poor fit]
COc1ccc(Nc2oc(COc3ccc(OC)cc3)nc2C#N)cc1	-25.5	–	14.6 µM [falling, single point]
Cc1ccc2cccc(OCCCOc3ccccc3F)c2n1	-7.33	–	–
CCN(CC)c1nc(-c2ccccc2)cc(C(F)(F)F)c1C#N	52.4	1.84 µM [rising, full curve]	–
Cc1ccc2nc3c(cc(C(=O)NCc4cccnc4)c(=N)n3C(C)C)c(=O)n2c1	-18.7	4.61 µM [falling, single point]	1.16 µM [falling, full curve]
O=C(COC(=O)CCc1c[nH]c2ccccc12)NCc1ccc2c(c1)OCO2	-5.54	6.51 µM [falling, single point]	6.51 µM [falling, single point]
Cc1cc(C)nc(N(C#N)Cc2ccccc2)n1	-38.2	5.17 µM [falling, full curve, poor fit]	18.4 µM [falling, partial curve]
Cc1nc2sc3c(c2c(=O)o1)CCC3	-53.3	29.1 µM [falling, single point]	4.61 µM [falling, partial curve]
Cc1ccc(NC(=O)c2ccccc2O)cc1	-36.2	29.1 µM [falling, single point]	29.1 µM [falling, single point]
CC(=O)N1CCCc2cc(S(=O)(=O)N3CCCC(C(=O)N4CCN(c5ccccc5)CC4)C3)ccc21 (centres undefined)	-17.7	–	–
COc1cc(CNCc2ccco2)cc(OC)c1O	16.4	–	29.1 µM [rising, single point]
COc1ccc(Nc2nc(N)nc(CN3CCC(Cc4ccccc4)CC3)n2)cc1	4.41	–	14.6 µM [rising, partial curve]
COC(=O)c1cc(Cl)c(NC(=O)c2ccc(C(C)(C)C)cc2)cc1OC	3.84	–	–
COc1ccc(CNC(=O)c2cc3cc(OC)ccc3oc2=O)cc1	21.4	–	29.1 µM [rising, partial curve]
COc1cc(/C=N/n2cnnc2)ccc1OC(=O)c1ccncc1	-22.3	–	5.17 µM [falling, full curve, poor fit]
Cn1c(=O)c2nc(-c3ccccc3)oc2c2ccccc21	22.9	0.00461 µM [rising, full curve, poor fit]	2.91 µM [rising, single point]
Clc1cccc(Cl)c1Cn1cnc2c(N3CCCCCC3)ncnc21	302	14.6 µM [rising, partial curve]	2.91 µM [rising, partial curve]
